Results are given in words; binding and its absence hold for the method and conditions named. In cells and extracts the contact can be indirect. A yes stands for co-enrichment or nearness to the bait. Other partners may have been found. Sequences can lack the tags named with a protein.
Target: T1, C. elegans TMC-1 with C-terminal 3C site-mVenus-3xFLAG (tmc-1::mVenus knock-in) (C. elegans) (UniProt D3KZG3)
T1 sequence: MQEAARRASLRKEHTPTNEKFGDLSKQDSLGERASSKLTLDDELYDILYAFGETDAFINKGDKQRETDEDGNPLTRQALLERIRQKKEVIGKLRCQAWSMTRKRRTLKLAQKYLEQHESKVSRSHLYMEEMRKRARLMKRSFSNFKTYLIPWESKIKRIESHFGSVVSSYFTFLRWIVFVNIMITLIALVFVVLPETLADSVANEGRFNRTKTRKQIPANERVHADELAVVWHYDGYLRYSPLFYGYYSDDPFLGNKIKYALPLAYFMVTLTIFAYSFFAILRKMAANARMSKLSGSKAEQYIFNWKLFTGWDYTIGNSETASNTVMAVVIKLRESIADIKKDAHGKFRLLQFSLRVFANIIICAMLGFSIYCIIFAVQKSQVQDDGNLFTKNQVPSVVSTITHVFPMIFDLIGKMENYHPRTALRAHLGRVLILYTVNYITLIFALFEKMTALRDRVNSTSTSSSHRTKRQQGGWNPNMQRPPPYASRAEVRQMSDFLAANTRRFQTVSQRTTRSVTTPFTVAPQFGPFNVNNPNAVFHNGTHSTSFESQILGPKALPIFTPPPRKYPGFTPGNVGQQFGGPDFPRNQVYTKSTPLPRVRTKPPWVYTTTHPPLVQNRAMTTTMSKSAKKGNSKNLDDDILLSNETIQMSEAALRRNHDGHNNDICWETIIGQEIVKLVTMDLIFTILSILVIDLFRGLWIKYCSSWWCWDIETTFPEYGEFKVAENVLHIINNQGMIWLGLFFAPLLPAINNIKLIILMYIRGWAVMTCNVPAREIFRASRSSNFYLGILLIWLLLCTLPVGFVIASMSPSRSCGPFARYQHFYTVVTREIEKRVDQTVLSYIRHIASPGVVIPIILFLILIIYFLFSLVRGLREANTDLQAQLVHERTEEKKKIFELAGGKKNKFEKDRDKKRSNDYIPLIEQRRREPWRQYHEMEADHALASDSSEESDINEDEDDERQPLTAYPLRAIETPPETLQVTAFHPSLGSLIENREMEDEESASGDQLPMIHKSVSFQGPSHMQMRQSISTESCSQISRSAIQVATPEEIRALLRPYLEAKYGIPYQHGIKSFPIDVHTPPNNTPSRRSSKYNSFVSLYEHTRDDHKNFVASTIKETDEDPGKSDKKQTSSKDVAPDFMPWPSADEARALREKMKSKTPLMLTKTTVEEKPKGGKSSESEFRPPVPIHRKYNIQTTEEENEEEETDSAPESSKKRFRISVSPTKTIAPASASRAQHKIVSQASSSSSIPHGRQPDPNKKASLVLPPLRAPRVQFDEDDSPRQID
Assay: affinity purification with mass spectrometry

With “ARRestin domain protein ARRD-6 of C. elegans” the binding was “binds”.

Reference: paper doi:10.1101/2022.05.06.490478 (bioRxiv, 2022)
